The test concerns the target Period (PER) M560D, tagged with HA or c-myc at the C terminus (Drosophila) (UniProt P07663). The test is described as follows: co-IP; head extracts of per^01 flies double homozygous for HA- and c-myc-tagged PER transgenes, collected at ZT20 (also ZT16 and ZT2) in 12-h:12-h LD at 25 °C; anti-MYC antibody on Protein G Sepharose beads, 16 h at 4 °C; extraction buffer 20 mM Hepes pH 7.5, 100 mM KCl, 1 mM DTT, 5% glycerol, 0.05% Nonidet P40; blots with anti-HA and anti-TIM.

Protein sequences, listed by entry. Tags and fused reporters are not part of them. Lines headed by an entry give the natural chain unless they say otherwise; changes in a name come on top. Chains listed by the source or under a name are the forms on record and can include a tag or linker.
Period (PER) M560D, tagged with HA or c-myc at the C terminus (P07663, form named): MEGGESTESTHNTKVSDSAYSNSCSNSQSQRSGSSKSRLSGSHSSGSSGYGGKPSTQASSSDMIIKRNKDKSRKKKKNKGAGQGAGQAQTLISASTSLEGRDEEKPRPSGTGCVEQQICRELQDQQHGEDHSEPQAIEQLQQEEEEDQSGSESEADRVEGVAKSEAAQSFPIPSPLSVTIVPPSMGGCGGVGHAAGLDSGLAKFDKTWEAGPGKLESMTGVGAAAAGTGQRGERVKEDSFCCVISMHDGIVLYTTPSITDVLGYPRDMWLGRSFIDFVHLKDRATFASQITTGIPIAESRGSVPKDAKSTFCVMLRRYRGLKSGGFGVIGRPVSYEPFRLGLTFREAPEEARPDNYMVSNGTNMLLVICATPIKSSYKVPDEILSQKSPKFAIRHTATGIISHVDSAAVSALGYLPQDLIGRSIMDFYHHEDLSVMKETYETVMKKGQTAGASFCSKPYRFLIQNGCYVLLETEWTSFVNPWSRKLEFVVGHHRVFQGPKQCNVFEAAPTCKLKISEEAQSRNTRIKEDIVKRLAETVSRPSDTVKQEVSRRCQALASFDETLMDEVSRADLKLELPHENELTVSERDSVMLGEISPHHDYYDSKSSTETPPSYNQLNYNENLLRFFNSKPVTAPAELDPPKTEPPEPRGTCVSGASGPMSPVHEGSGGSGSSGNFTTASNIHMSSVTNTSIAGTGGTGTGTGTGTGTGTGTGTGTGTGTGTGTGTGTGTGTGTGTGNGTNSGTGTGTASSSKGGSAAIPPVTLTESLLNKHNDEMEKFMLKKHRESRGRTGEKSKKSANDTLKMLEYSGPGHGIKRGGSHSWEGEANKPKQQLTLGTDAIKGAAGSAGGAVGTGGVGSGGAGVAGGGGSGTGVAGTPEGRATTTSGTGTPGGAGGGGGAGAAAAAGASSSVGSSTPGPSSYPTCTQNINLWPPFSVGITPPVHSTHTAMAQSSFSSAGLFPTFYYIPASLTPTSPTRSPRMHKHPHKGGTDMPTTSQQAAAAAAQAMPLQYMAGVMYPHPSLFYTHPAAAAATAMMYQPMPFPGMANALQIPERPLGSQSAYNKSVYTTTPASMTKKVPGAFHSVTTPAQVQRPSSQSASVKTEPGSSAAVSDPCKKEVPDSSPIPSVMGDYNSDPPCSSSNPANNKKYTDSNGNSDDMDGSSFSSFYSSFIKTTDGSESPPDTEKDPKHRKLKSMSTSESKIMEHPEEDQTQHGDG

Consider 1 molecule from article PMC2671555.

These are yes or no findings as the source states them, for the method shown. In cells and extracts the contact can be indirect. Some entries that bind do so weakly or less than the wild type.

B1: Timeless (TIM) (protein, UniProt P49021 1-1398)
chain: MDWLLATPQLYSAFSSLGCLEGDTYVVNPNALAILEEINYKLTYEDQTLRTFRRAIGFGQNVRSDLIPLLENAKDDAVLESVIRILVNLTVPVECLFSVDVMYRTDVGRHTIFELNKLLYTSKEAFTEARSTKSVVEYMKHILESDPKLSPHKCDQINNCLLLLRNILHIPETHAHCVMPMMQSMPHGISMQNTILWNLFIQSIDKLLLYLMTCPQRAFWGVTMVQLIALIYKDQHVSTLQKLLSLWFEASLSESSEDNESNTSPPKQGSGDSSPMLTSDPTSDSSDNGSNGRGMGGGMREGTAATLQEVSRKGQEYQNAMARVPADKPDGSEEASDMTGNDSEQPGSPEQSQPAGESMDDGDYEDQRHRQLNEHGEEDEDEDEVEEEEYLQLGPASEPLNLTQQPADKVNNTTNPTSSAPQGCLGNEPFKPPPPLPVRASTSAHAQMQKFNESSYASHVSAVKLGQKSPHAGQLQLTKGKCCPQKRECPSSQSELSDCGYGTQVENQESISTSSNDDDGPQGKPQHQKPPCNTKPRNKPRTIMSPMDKKELRRKKLVKRSKSSLINMKGLVQHTPTDDDISNLLKEFTVDFLLKGYSYLVEELHMQLLSNAKVPIDTSHFFWLVTYFLKFAAQLELDMEHIDTILTYDVLSYLTYEGVSLCEQLELNARQEGSDLKPYLRRMHLVVTAIREFLQAIDTYNKVTHLNEDDKAHLRQLQLQISEMSDLRCLFVLLLRRFNPSIHSKQYLQDLVVTNHILLLILDSSAKLGGCQTIRLSEHITQFATLEVMHYYGILLEDFNNNGEFVNDCIFTMMHHIGGDLGQIGVLFQPIILKTYSRIWEADYELCDDWSDLIEYVIHKFMNTPPKSPLTIPTTSLTEMTKEHNQEHTVCSWSQEEMDTLYWYYVQSKKNNDIVGKIVKLFSNNGNKLKTRISIIQQLLQQDIITLLEYDDLMKFEDAEYQRTLLTTPTSATTESGIEIKECAYGKPSDDVQILLDLIIKENKAQHLLWLQRILIECCFVKLTLRSGLKVPEGDHIMEPVAYHCICKQKSIPVVQWNNEQSTTMLYQPFVLLLHKLGIQLPADAGSIFARIPDYWTPETMYGLAKKLGPLDKLNLKFDASELEDATASSPSRYHHTGPRNSLSSVSSLDVDLGDTEELALIPEVDAAVEKAHAMASTPSPSEIFAVPKTKHCNSIIRYTPDPTPPVPNWLQLVMRSKCNHRTGPSGDPSDCIGSSSTTVDDEGFGKSISAATSQAASTSMSTVNPTTTLSLNMLNTFMGSHNENSSSSGCGGTVSSLSMVALMSTGAAGGGGNTSGLEMDVDASMKSSFERLEVNGSHFSRANNLDQEYSAMVASVYEKEKELNSDNVSLASDLTRMYVSDEDDRLERTEIRVPHYH
Turning to B1, the binding entry was “binds”.
